According to PubChem BioAssay AID1347423 (Functional Genomics Laboratory (NCATS/FGL), 2020):
Out of some 52,000 sequences screened, about 210 (0.4%) were called active.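 Rule for the calls: active = gene whose silencing raises cell survival under the drug, median off-target-corrected z-score across its silencing RNAs 2 or more; inactive = the rest.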 The list shows a part of the results.

Assay: Resistance to Poly (ADP-Ribose) Polymerase inhibitor: Gene Identification via Genome-wide siRNA Screen
Details: mouse BRCA2 R2336H ES cells, olaparib, CellTiter-Glo viability; stronger effect = higher value
Outline: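 Genome-wide siRNA screen (3 siRNAs/gene, 20 nM) in mouse ES cells carrying hypomorphic BRCA2 R2336H; olaparib 500 nM added 48 h post-transfection, CellTiter-Glo viability 72 h later. Normalized to plate-median negative control; MAD z-scores, gene median, seed-adjusted.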

Sequence	z-score
GGAGAUACAGAUGAAUGAATT against Apg16l	inactive: -1.33
GCCAGUGGUGUUUGCAUAGTT against Scrn1	inactive: -1.07
GGAGAAUUGCCCAUCUUUGTT against Ankrd32	inactive: -0.208
GCCUUCAGGACGAUUUAUUTT against Pla2g7	inactive: 0.423
GGAAGGAAGGAAUAAAACUTT against D930001I22Rik	inactive: -0.647
CCGGAGAUAUAUCAAUAUUTT against Pcdhga3	inactive: 0.409
GGGUGACAGUGAUAUCCAGTT against Mc1r	inactive: -0.664
GCAAAAUUACCAGCUUACUTT against 5730589K01Rik	inactive: 0.133
CCUGUCCAGGGUUUGACCATT against Man2c1	inactive: 0.0847
GGAUUUUCAUCGUGCUUUGTT against Apba2bp	inactive: -0.319
GCUUAUAAGAGAAAUGACUTT against 4921511C20Rik	inactive: -1.15
CGAGCUCCUUCAUAUUAAATT against Rapgef4	inactive: 0.164
GGCAAGAAGUAGGAAGACUTT against Nucb2	inactive: -1.92
CUUUGAUGAUAUUGCUGCUTT against Olfr849	inactive: -1.26
GGAUUAAUCAAACUGAGAGTT against Lrrtm2	inactive: -0.795
CCUGGCAUAAGUGGUUUUATT against Zfp82	inactive: 3.06
GGAACUCACACAGAACCAATT against Pldn	inactive: -0.949
GGAUGAUGACGACAUUGAUTT against Eef1b2	inactive: -1.74
GGAAUGCCGGAUUGCUCACTT against BC008163	inactive: 1.25
GGUUGUGUCAAUAAAAACATT against Dusp2	inactive: 1.79
CCAAAUAACCUGCUACGAGTT against Gpr43	inactive: 0.874
GGGUUGUGUCUGAAGAGAATT against Phf17	inactive: -0.948
GGUCAAGUCACUGGUGACGTT against Fabp3	inactive: -1.23
GGGACAGACUGAAAAAUUCTT against Pde4d	inactive: 1.28
GGGCUCAUCCUUAAAGAUUTT against Jarid1c	inactive: 0.903
GGUGCCAAUCAUUGUUAUGTT against Kcnv1	inactive: 1.05

3 entries drawn at random from the list so far:
Sequence	z-score
GGUCAAGUCACUGGUGACGTT against Fabp3	inactive: -1.23
GCUUAUAAGAGAAAUGACUTT against 4921511C20Rik	inactive: -1.15
GGUGCCAAUCAUUGUUAUGTT against Kcnv1	inactive: 1.05

Continuation:

Sequence	z-score
GCGAAGUCAUCAAAUUUUCTT against Abcb11	inactive: 0.966
ACUACAUUACCAGAAGACATT against Olfr1178	inactive: 0.405
GCCUUGAACCUUCACACCUTT against Ccl8	inactive: 0.712
GCGAAUUGCAUUCCUGUUUTT against BC033609	inactive: -1.16
GGGAGGAGAUUAUUUCUAUTT against Nmnat2	inactive: -1.67
CCUCCAUUAACUAUGUUAGTT against Chd1l	inactive: 0.853
GGCAACACUUAAGCCUGAGTT against MGC59495	inactive: -2.28
GCAAGUUCAACCUCAAGGGTT against 5430400N05Rik	inactive: 0.636
GGAGGAUGGAAAGAUAAAATT against Slc25a27	inactive: -0.845
GCCACAUUCCGAAUACUCUTT against Disp1	inactive: -0.96
GGCCCUAGUUACAACAAAATT against V1rg4	inactive: 1.62
GGUAUCCAUACUUCCACCCTT against 4930474N05	inactive: -0.838
GGUGAAGGCUUACCAGAUUTT against Oog1	inactive: -2.33
GGCUCCUUAAAGAUAUGUUTT against Nsmaf	inactive: 0.332
GCGUGAGUAUGAGAAAUGUTT against BC029103	inactive: -0.772
CCACAAGUUCACUAAGGAGTT against Six3	inactive: -0.971
GGCCUAACCUCCAAAAGUATT against Xpo4	inactive: -1.72
GGUUUGUGGAUGACAACGGTT against Mtf1	inactive: 1.8
GCUAGUUUAAGAGACUUUGTT against Nfatc2ip	inactive: -0.253
GGAGGUUCUACCCUGUUCATT against Actr1a	inactive: -1.38
GGGUUAUGAAGAAGCUCCUTT against Olfr1262	inactive: -0.163
GGACAAGAAAAGGAAGAAGTT against Ap3d1	inactive: 0.269
GGAAAUUUGGAUUGAUGAATT against Mef2c	inactive: 1.15
GGGAGCACCAGCAAUGGAUTT against Col17a1	inactive: -0.188
GCUUAAAGCUGCCUAAAAATT against 1700021F05Rik	inactive: 0.848
GGUGGUAACGGAAAACCUGTT against Wnt10b	inactive: 2.31
